No constants are given. Whether binding was seen depends on the method and setting. Some binding calls cover weakened binding; strength is not graded here.
Molecular target: CRT N+P结构域 (CALR N+P) (UniProt P27797)
Experiment: ELISA, plate coated with CRT protein, HA-tagged nanobody detected with anti-HA

B1: 204纳米抗体 (VHH, not shown: small tags and cut ends)
VHH: AVQLVESGGGLVQAGGSLRLSCVASGRPFSLYAVGWFRQAPGKAREFVAAISRSGSTTDHADSVKGRFTVSRDNDANTVSLLMSNLKPEDTAIYYCAAARSTRGYDYWGQGTQVTVSS
Q: How did the binding turn out when B1 was run?
A: binds

— patent CN114395037A
